Data from paper PMC12755392, “p62 sorts Lupus La and selected microRNAs into breast cancer-derived exosomes”.
These are yes or no findings as the source states them, for the method shown. For part of these data: In cells and extracts the contact can be indirect. Some entries that bind do so weakly or less than the wild type. For part of these data: Where a sequence is shown, tags or fusion partners need not be part of it.

Experiments:
[1] = target: T1, Lupus La protein (human (endogenous in MDA-MB-231)) (UniProt P05455); assay: co-IP; MDA-MB-231 WT lysate in IP buffer (20 mM HEPES pH 7.4, 100 mM KCl, 5 mM MgCl2, 1% TX-100), 5 ug mouse anti-La (OTI1E11) or IgG isotype control, Protein A/G agarose, overnight, 4 C; immunoblot
T1 sequence: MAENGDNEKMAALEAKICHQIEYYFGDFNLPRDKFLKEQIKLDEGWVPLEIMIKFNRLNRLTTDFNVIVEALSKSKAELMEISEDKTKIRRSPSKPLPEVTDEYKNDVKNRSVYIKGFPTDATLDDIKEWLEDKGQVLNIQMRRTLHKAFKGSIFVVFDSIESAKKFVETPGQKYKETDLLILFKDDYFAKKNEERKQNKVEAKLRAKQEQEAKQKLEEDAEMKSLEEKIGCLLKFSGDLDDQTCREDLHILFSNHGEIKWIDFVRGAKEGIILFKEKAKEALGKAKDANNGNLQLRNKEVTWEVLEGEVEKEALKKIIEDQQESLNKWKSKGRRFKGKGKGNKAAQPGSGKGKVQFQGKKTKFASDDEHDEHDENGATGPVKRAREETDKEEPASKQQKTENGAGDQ

[2] = target: T1, Lupus La protein (human (endogenous in MDA-MB-231)); assay: co-IP; exosomes immunoisolated from MDA-MB-231 HA-CD63-mEGFP^ECL1 cells with GFP-Trap beads, lysed in IP buffer; 5 ug mouse anti-La (OTI1E11) or IgG isotype control, Protein A/G agarose, overnight, 4 C; immunoblot
[3] = target: T2, recombinant La-Nluc-FLAG-His6 (human) (UniProt P05455); assay: pull-down; anti-DYKDDDK Fab-Trap agarose loaded with La-Nluc-FLAG-His6 or 3xFLAG peptide (control), washed with TBS, incubated with His6-MBP-p62 1 h at room temperature; immunoblot; both purified
T2 sequence: T1 sequence

Row | binding [1] | binding [2] | binding [3] | Substance
1 | binds | binds | – | selective autophagy receptor p62 (from UniProt Q13501 1-440)
2 | – | – | binds | recombinant His6-MBP-p62 (from UniProt Q13501 1-440)
